Percent effect of library compounds

Values are the deposited “Percent Effect”, in %. The controls that fix the scale are not given in the record; negative values are as filed. Compounds were drawn at random from those tested, without regard to their results.

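Assay of Toxoplasma gondii numbers, read through their beta-galactosidase reporter with a colour substrate. Compounds at 50 µM. The record gives no direction; the compounds picked for IC50 retests had high values, so higher reads as fewer parasites. About 18,000 compounds were tested under these conditions; 0.94% (about 170) showed 50% or more at least once.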

* N#Cc1ccc(CCN)cc1 | -17.99%
* CCc1nccn1CC(=O)NCCCc1csc(N)n1 | -13.11%
* CC(C)(C)Sc1cc(CNC(=O)C2CCCN2)ccn1 (centres unmarked) | -9.03%
* Cc1ccnc(NC(=O)C2=NN(C)C(=O)CC2)c1 | -13.85%
* CSCCN(C)Cc1cccc(OCC(N)=O)c1 | -17.51%
* COc1ccc(C(C)N)cn1 (centres unmarked) | -12.86%
* CN(CC(=O)NCCC#N)CC1CCN(CCO)CC1 | 7.565%
* CC(=O)c1cc(C(=O)NCC[C@@H]2CCCN2)cs1 | -9.36%
* COCCNC(=O)C1CCCc2ccccc21 (centres unmarked) | -5.451%
* COCCOCCS(=O)(=O)NCCc1ccccn1 | -9.659%
* CC(C)c1noc(N2CCS(=O)(=O)CC2)n1 | 0.3056%
* O=C1CCC(=O)c2ccccc2N1 | -6.82%
* Nc1ccn(C2CCSCC2)n1 | -0.8178%
* Cc1cc(C)c(CNC(=O)C(C)C)c(=O)[nH]1 | -4.184%
* Cc1cc(N2CCCC2)nc(C)n1 | -7.517%
* CC(C)(O)Cn1nnc(-c2cccs2)n1 | -1.714%
* CNCc1ncno1 | -1.407%
* O=C(Nc1ccc(N2CCOCC2)cc1)C1CCCO1 (centres unmarked) | -5.671%
* NCCN1CCc2c(Cl)cccc2C1=O | 17.2%
* CC(CC(=O)N1CC[C@H](O)C1)c1cccc(F)c1 (some centres unmarked) | 8.411%
* Cc1ccc(-n2nnc(C#N)c2C)cc1 | 7.407%
* CC(C)NC(=O)CN1CC(Oc2ccccc2F)C1 | 5.873%
* O=C1NCCN1C1CCN(Cc2ccc(Br)o2)CC1 | -10.16%
* CN1CCC(CCNS(C)(=O)=O)CC1 | -6.823%
* CC(C)(C)c1ccccc1S(=O)(=O)NCCN | 2.819%
* CC(NC(=O)Nc1ccc2c(c1)C(=O)NC2=O)C1CC1 (centres unmarked) | 23.4%
* O=C(NCCCNCc1cccnc1)c1occc1Br | 0.08587%
* CCNS(=O)(=O)c1ccc(CC(N)=O)cc1 | -5.414%
* OCCCN1CCCc2c(F)cccc21 | 11.56%
* O=C(C1CCCN1Cc1ccccn1)N1CCOCC1 (centres unmarked) | -3.88%
* CCNC(=O)NC(=O)CN(C)Cc1ccc(Br)o1 | -8.047%
* CN(Cc1ccc(Cl)s1)C(=O)C1CCN(C(N)=O)CC1 | -8.394%
* COc1ccccc1C(=O)NCCc1cncn1C | -5.109%
* Cc1ccc(-c2noc(CNC(=O)C(C)C)n2)nn1 | 17.97%
* COc1ccc2c(c1)CCCN2C(=O)CSC | 4.43%
* NC1CCCN(c2cc(N3CCOCC3)ncn2)C1 (centres unmarked) | 10.41%
* CCC(C)(C)NCC(=O)Nc1cccc(C(=O)NC)c1 | -1.979%
* CCCc1nnc(NC(=O)C2CC2)s1 | -3.796%
* CN(C)C1CCCN(C(=O)c2ccc(Br)cn2)C1 (centres unmarked) | -10.44%
* CN(C)S(=O)(=O)CCCN1CC(c2ccccn2)C1 | 18.65%
* [H][C@@]12CCN(C(=O)c3cnc(CC)nc3)C[C@@]([H])(CC1)N2C | -3.093%
* Nc1ncccc1CN1CCc2ccccc2CC1 | -4.382%

For reference, 3 entries once more:

* CCC(C)(C)NCC(=O)Nc1cccc(C(=O)NC)c1 | -1.979%
* CNCc1ncno1 | -1.407%
* N#Cc1ccc(CCN)cc1 | -17.99%

Source: ChEMBL document CHEMBL3988442, “University of Dundee, Small-Polar-MMV Screening Library” (2021).